Here are results for 26 molecules from the supplement of paper PMC10735217.

In this assay the test system is HEK293A TEAD-LUC reporter. In words: TEAD-luciferase reporter activity (YAP activation), robust Z score vs plate; higher = stronger YAP/TEAD activation. The note with it: 24 h. (A reporter such as luciferase makes a cellular process visible.)

Each structure is given as a SMILES string. Where a name gives a salt, the structure may show the parent alone. The list shows a part of the results. Repeats in this data set agree poorly, so a single value says little.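 The human kidney-derived cells carry a stably integrated construct of eight TEAD-binding elements driving luciferase, read by luminescence in a drug-repurposing library screen. A compound counts as a hit when its signal is more than five robust Z scores above the plate mean.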

In the case of `COc1cccc([C@H](Oc2ccc3c(cnn3-c3ccc(F)cc3)c2)[C@H](C)NC(=O)C(F)(F)F)c1`, the TEAD-luciferase reporter activity (compound concentration: 200 nM) was inactive: 0.686, the TEAD-luciferase reporter activity (compound concentration: 2 uM) is inactive: 1.1 and the TEAD-luciferase reporter activity (compound concentration: 10 uM) is inactive: 2.03.

In the case of `CCN(CC)CCn1c2c(c3ccc(OC)cc31)CCN1C[C@H]3C[C@@H](OC(=O)c4cc(OC)c(OC)c(OC)c4)[C@H](OC)[C@@H](C(=O)OC)[C@H]3C[C@H]21`, the TEAD-luciferase reporter activity runs as follows: (compound concentration: 200 nM) inactive: -0.683; (compound concentration: 2 uM) inactive: -0.0153; (compound concentration: 10 uM) inactive: 0.407.

Turning to `COc1cc(OC)nc(O[C@H](C(=O)O)C(OC)(c2ccccc2)c2ccccc2)n1` [Darusentan], the TEAD-luciferase reporter activity (compound concentration: 200 nM) was inactive: -0.86, the TEAD-luciferase reporter activity (compound concentration: 2 uM) is inactive: 0.406 and the TEAD-luciferase reporter activity (compound concentration: 10 uM) was inactive: -0.618.

Regarding `O=C(O)C1CCC(c2cc3cccnc3c(-c3cccc(F)c3)n2)CC1` (configuration not stated), the TEAD-luciferase reporter activity reads like this: (compound concentration: 200 nM) inactive: -1.39; (compound concentration: 2 uM) inactive: -0.163; (compound concentration: 10 uM) inactive: 0.468.

As for `CC1(C)C2CCC1(S(=O)(=O)O)C(=O)C2` (configuration not stated), the TEAD-luciferase reporter activity was inactive: -1.34 (compound concentration: 200 nM), inactive: 4.86 (compound concentration: 2 uM) and inactive: 0.354 (compound concentration: 10 uM).

Take `O=S(=O)(c1ccc(F)cc1)N1CCn2c3c(c4cc(C5CCCCC5)ccc42)CCCC31` (configuration not stated): the TEAD-luciferase reporter activity was inactive: -0.442 (compound concentration: 200 nM), inactive: -1.09 (compound concentration: 2 uM) and inactive: -0.978 (compound concentration: 10 uM).

Turning to `Cc1c(C)c2c(c(C)c1O)CC[C@@](C)(C(=O)N1CCN(c3ccc(NC(=N)c4cccs4)cc3)CC1)O2`, the TEAD-luciferase reporter activity (compound concentration: 200 nM) was inactive: 1.28, the TEAD-luciferase reporter activity (compound concentration: 2 uM) was inactive: 0.845 and the TEAD-luciferase reporter activity (compound concentration: 10 uM) is inactive: 0.012.

Turning to `CCN(CC)CC(=O)NC1c2ccccc2CS(=O)(=O)c2ccccc21` (configuration not stated) [amidepin], the TEAD-luciferase reporter activity runs as follows: (compound concentration: 200 nM) inactive: 0.135; (compound concentration: 2 uM) inactive: -1.7; (compound concentration: 10 uM) inactive: -0.453.

For the molecule `COc1ccc2c(c1)CCC(c1ccccc1)=C2c1ccc(OCCN2CCCC2)cc1` [nafoxidine], the TEAD-luciferase reporter activity was inactive: -0.987 (compound concentration: 200 nM), inactive: 0.331 (compound concentration: 2 uM) and inactive: -2.06 (compound concentration: 10 uM).

With `Cc1nc(C#Cc2ccnc(Cl)c2)c(C)n1-c1ccc(F)cc1` [Basimglurant sulfate], the TEAD-luciferase reporter activity (compound concentration: 200 nM) is inactive: -1.6, the TEAD-luciferase reporter activity (compound concentration: 2 uM) was inactive: -0.365 and the TEAD-luciferase reporter activity (compound concentration: 10 uM) is inactive: -3.54.

With `O=C(CO)CO` [dihydroxyacetone], the TEAD-luciferase reporter activity (compound concentration: 2 uM) was inactive: -1.13.

In the case of `O=C(CO)CO` [dihydroxyacetone, Vinas], the TEAD-luciferase reporter activity reads like this: (compound concentration: 200 nM) inactive: -1.52; (compound concentration: 10 uM) inactive: -0.409.

Regarding `CC(C)(C)NCc1cc(Nc2ccnc3cc(Cl)ccc23)cc(-c2ccc(Cl)cc2)c1O` [tebuquine], the TEAD-luciferase reporter activity is inactive: 1.09 (compound concentration: 200 nM), inactive: -0.313 (compound concentration: 2 uM) and inactive: 0.0791 (compound concentration: 10 uM).

With `OCc1ccccc1O`, the TEAD-luciferase reporter activity (compound concentration: 200 nM) is inactive: -0.969, the TEAD-luciferase reporter activity (compound concentration: 2 uM) is inactive: 0.467 and the TEAD-luciferase reporter activity (compound concentration: 10 uM) was inactive: 0.33.

Take `CCC(CC)CC(=O)c1c(C(=O)OC)c(-c2ccc(OC)c(OC)c2)c2c(OC)c(OC)c(OC)cc2c1O`: the TEAD-luciferase reporter activity by setting is: (compound concentration: 200 nM) inactive: -0.753; (compound concentration: 2 uM) inactive: 3.44; (compound concentration: 10 uM) inactive: 1.73.

Consider `O=S(=O)([O-])CC(S)CS` (configuration not stated) [Sodium 2,3-dimercapto-1-propanesulfonate], for which the TEAD-luciferase reporter activity is inactive: -0.96 (compound concentration: 200 nM), inactive: 0.205 (compound concentration: 2 uM) and inactive: 1.37 (compound concentration: 10 uM).

On to `CC1(C)S[C@@H]2[C@H](NC(=O)Cc3ccccc3)C(=O)N2C1C(=O)O` (some centres not stated) [Penicillin G Potassium (Benzylpenicillin)], for which the TEAD-luciferase reporter activity runs as follows: (compound concentration: 200 nM) inactive: -1.53; (compound concentration: 10 uM) inactive: -0.842.

Take `CC1(C)S[C@@H]2[C@H](NC(=O)Cc3ccccc3)C(=O)N2C1C(=O)O` (some centres not stated) [Penicillin G sodium]: the TEAD-luciferase reporter activity (compound concentration: 2 uM) is inactive: -1.24.

Regarding `CN1CC(O)C2=CC(=O)C(=O)C=C21` (configuration not stated), the TEAD-luciferase reporter activity is inactive: 0.0053 (compound concentration: 200 nM), inactive: -0.254 (compound concentration: 2 uM) and inactive: -0.556 (compound concentration: 10 uM).

With `O=C(c1cc2ccccc2o1)N1CCN(Cc2ccccc2)CC1`, the TEAD-luciferase reporter activity (compound concentration: 200 nM) is inactive: -1.57, the TEAD-luciferase reporter activity (compound concentration: 2 uM) is inactive: 1.29 and the TEAD-luciferase reporter activity (compound concentration: 10 uM) was inactive: 0.421.

As for `Nc1c(NC/C=C\COc2cc(CN3CCCCC3)ccn2)c(=O)c1=O`, the TEAD-luciferase reporter activity was inactive: -0.997 (compound concentration: 200 nM), inactive: 0.666 (compound concentration: 2 uM) and inactive: 1.26 (compound concentration: 10 uM).

Consider `COc1ccccc1N1CCN(CCc2oc(=O)[nH]c2-c2ccc(F)cc2)CC1` [zoloperone], for which the TEAD-luciferase reporter activity is inactive: 2.45 (compound concentration: 200 nM), inactive: -1.03 (compound concentration: 2 uM) and inactive: -1.18 (compound concentration: 10 uM).

For `NC(N)=NCCC[C@@H]1NC(=O)[C@@H](Cc2ccc(O)cc2)NC(=O)CS(=O)C[C@@H](C(=O)O)NC(=O)[C@H](CC(=O)O)NC(=O)CNC1=O` (some centres not stated), the TEAD-luciferase reporter activity (compound concentration: 200 nM) was inactive: 4.09, the TEAD-luciferase reporter activity (compound concentration: 2 uM) was inactive: 0.51 and the TEAD-luciferase reporter activity (compound concentration: 10 uM) was inactive: -0.902.

Consider `CCN(CC)C(=O)CSc1ccc(Cl)nn1`, for which the TEAD-luciferase reporter activity was inactive: -1.72 (compound concentration: 200 nM), inactive: 1.7 (compound concentration: 2 uM) and inactive: 0.601 (compound concentration: 10 uM).

In the case of `CN1C(=O)c2ccncc2/C(=C/CCCCC(=O)O)c2ccccc21`, the TEAD-luciferase reporter activity (compound concentration: 200 nM) was inactive: -3.28, the TEAD-luciferase reporter activity (compound concentration: 2 uM) was inactive: 0.983 and the TEAD-luciferase reporter activity (compound concentration: 10 uM) is inactive: -0.827.

On to `FC(F)(F)Oc1ccc(Nc2ccc3cccc(Cl)c3n2)cc1`, for which the TEAD-luciferase reporter activity (compound concentration: 200 nM) was inactive: -0.0414, the TEAD-luciferase reporter activity (compound concentration: 2 uM) was inactive: -1.26 and the TEAD-luciferase reporter activity (compound concentration: 10 uM) was active: 6.03.
